According to patent publication US11096985B2, “Antimicrobial peptides, their variants and uses” (priority 2015, dated 2021):
At least one peptide structure holds a part that was inferred or is arguable (an end, a ring closure or a residue). Some entries share one result that the patent states for a list of compounds. Where a SMILES comes first, the peptide text is derived from it.

What was measured:
E. coli [1] = experiment: Bacterial adherence on coated silicon catheters, E. coli; format: cell-based, Escherichia coli; details: peptide immobilized on silicon catheter, 6 h, versus uncoated catheter
4 ATCC bacterial strains = experiment: Effect of NaCl on MIC; format: cell-based; details: 200 mM NaCl in MH medium
E. coli [2] = experiment: Transmission electron microscopy of treated E. coli; format: cell-based, Escherichia coli; details: 10 μg/ml, 37° C., 1 h
Method: E. coli and S. aureus were grown to mid-exponential phase and diluted in Muller Hinton broth (MHB) medium to a cell density of 0.1 by taking absorbance at 600 nm and incubated at 37° C. for 1 h with 10 μg/ml Chain peptides. After incubation, an equal volume of 2% glutaraldehyde in 0.1 M phosphate buffer was added and the cells were pelleted by centrifugation at 5000 rpm for 2 minutes, and the cell pellet was fixed with 1% glutaraldehyde in 0.1 M phosphate. Cells were post-fixed with osmium tetroxide, dehydrated using increasing concentrations of acetone or alcohol, and embedded in plastic resin (Epon). Ultrathin sections (70-80 nm) were post-stained with uranyl acetate and lead citrate before observation with TEM. Microscopy was performed with a Tecnai G2 Spirit 120 kV TEM with Veleta and Quemesa CCD cameras.

S. aureus = experiment: Bacterial adherence on coated silicon catheters, S. aureus; format: cell-based, Staphylococcus aureus; details: peptide immobilized on silicon catheter, 6 h, versus uncoated catheter

## CC[C@H](C)[C@H](NC(=O)[C@H](Cc1c[nH]c2ccccc12)NC(=O)[C@@H](N)CCCCN)C(=O)N[C@H](C(=O)N[C@@H](Cc1c[nH]c2ccccc12)C(=O)N[C@@H](CCCNC(=N)N)C(=O)N[C@@H](Cc1c[nH]c2ccccc12)C(=O)N[C@@H](CCCNC(=N)N)C(=O)N[C@@H](Cc1ccccc1)C(=O)N[C@@H](CCCCN)C(=O)N[C@@H](CCCNC(=N)N)C(=O)O)C(C)C [Chain201] (H-KWIVWRWRFKR-OH)
E. coli [1]
  reduction of living cells of E. coli on immobilized catheter: > 30%
4 ATCC bacterial strains
  increase in MIC values with NaCl: 2 fold
E. coli [2]
  TEM observation of E. coli cells: almost all E. coli cells had lost their rod-shaped structural integrity
S. aureus
  reduction of living cells of S. aureus on immobilized catheter: more than 70%

## CC[C@H](C)[C@H](NC(=O)[C@H](CCSC)NC(=O)[C@H](C)NC(=O)[C@H](CCCNC(=N)N)NC(=O)[C@H](Cc1c[nH]c2ccccc12)NC(=O)[C@H](CCCCN)NC(=O)[C@@H](N)CCCNC(=N)N)C(=O)N[C@@H](CCCNC(=N)N)C(=O)N[C@@H](CC(C)C)C(=O)N[C@@H](Cc1c[nH]cn1)C(=O)N[C@@H](C)C(=O)N[C@@H](CCCCN)C(=O)N[C@@H](CCCNC(=N)N)C(=O)N[C@@H](CC(C)C)C(=O)N[C@@H](CCCNC(=N)N)C(=O)N[C@@H](CCCCN)C(=O)O [Chain104] (H-RKWRAMIRLHAKRLRK-OH)
4 ATCC bacterial strains
  increase in MIC values with NaCl: 2 fold

## CC[C@H](C)[C@H](NC(=O)[C@H](CCSC)NC(=O)[C@H](C)NC(=O)[C@H](CCCNC(=N)N)NC(=O)[C@H](Cc1c[nH]c2ccccc12)NC(=O)[C@H](CCCCN)NC(=O)[C@@H](N)CCCNC(=N)N)C(=O)N[C@@H](CCCNC(=N)N)C(=O)N[C@@H](CC(C)C)C(=O)N[C@@H](Cc1c[nH]cn1)C(=O)N[C@@H](C)C(=O)N[C@@H](CCCCN)C(=O)N[C@@H](Cc1c[nH]c2ccccc12)C(=O)N[C@@H](CC(C)C)C(=O)N[C@@H](CCCNC(=N)N)C(=O)N[C@@H](CCCCN)C(=O)O [Chain105] (H-RKWRAMIRLHAKWLRK-OH)
E. coli [1]
  reduction of living cells of E. coli on immobilized catheter: > 30%
4 ATCC bacterial strains
  increase in MIC values with NaCl: 2 fold
E. coli [2]
  TEM observation of E. coli cells: almost all E. coli cells had lost their rod-shaped structural integrity
S. aureus
  reduction of living cells of S. aureus on immobilized catheter: more than 70%

## CC[C@H](C)[C@H](NC(=O)[C@H](CC(C)C)NC(=O)[C@H](CCCNC(=N)N)NC(=O)[C@@H](N)CCCNC(=N)N)C(=O)N[C@@H](Cc1c[nH]c2ccccc12)C(=O)N[C@@H](CCCNC(=N)N)C(=O)N[C@@H](CCCNC(=N)N)C(=O)N[C@@H](Cc1ccccc1)C(=O)N[C@@H](CCCCN)C(=O)N[C@@H](Cc1c[nH]c2ccccc12)C(=O)N[C@@H](CC(C)C)C(=O)N[C@@H](CCCNC(=N)N)C(=O)O [Chain204] (H-RRLIWRRFKWLR-OH)
4 ATCC bacterial strains
  increase in MIC values with NaCl: 2 fold
